Measured values published in patent publication US20220279814A1, “PROTEIN HYDROLYSATE DERIVED FROM BLUE-BACKED FISH” (SPECIALITES PET FOOD, priority 2019, published 2022).
At least one structure is not confirmed: it was looked up by name or label, or the drawing left a doubt.

Key:
BV2 microglial cells = experiment: LPS-induced pro-inflammatory cytokine expression in BV2 microglial cells (qPCR); format: cell-based, mouse; conditions: 24 h pre-treatment providing 16μM DHA, then LPS 1 μg/mL 2 h, 6 h
hippocampus [1] = experiment: Acute LPS inflammation: cytokine and COX-2 gene expression in hippocampus (qPCR); format: in vivo, mouse; conditions: LPS-treated animals, 18-day gavage
hippocampus [2] = experiment: Acute LPS inflammation: BDNF and NGF gene expression in hippocampus (qPCR); format: in vivo, mouse; conditions: 18-day gavage

CC/C=C\C/C=C\C/C=C\C/C=C\C/C=C\C/C=C\CCC(=O)O [DHA, docosahexaenoic acid]
LPS-induced IL-1β expression (BV2 microglial cells): reduces LPS-induced IL-6 and IL-1β expression | LPS-induced IL-6 expression (BV2 microglial cells): reduces LPS-induced IL-6 and IL-1β expression | IL-6 expression (hippocampus [1]): significantly decreased | NGF expression (hippocampus [2]): decreased | BDNF expression (hippocampus [2]; basal conditions): decreased | BDNF expression (hippocampus [2]; in response to LPS): stable
